The record followed here is PMC5487340, “Peptides derived from MARCKS block coagulation complex assembly on phosphatidylserine” (Scientific Reports, 2017).

Amino acid sequences for entries named in this document (tags omitted). Residues count along the entry.
UniProt P02769, residues 25-607: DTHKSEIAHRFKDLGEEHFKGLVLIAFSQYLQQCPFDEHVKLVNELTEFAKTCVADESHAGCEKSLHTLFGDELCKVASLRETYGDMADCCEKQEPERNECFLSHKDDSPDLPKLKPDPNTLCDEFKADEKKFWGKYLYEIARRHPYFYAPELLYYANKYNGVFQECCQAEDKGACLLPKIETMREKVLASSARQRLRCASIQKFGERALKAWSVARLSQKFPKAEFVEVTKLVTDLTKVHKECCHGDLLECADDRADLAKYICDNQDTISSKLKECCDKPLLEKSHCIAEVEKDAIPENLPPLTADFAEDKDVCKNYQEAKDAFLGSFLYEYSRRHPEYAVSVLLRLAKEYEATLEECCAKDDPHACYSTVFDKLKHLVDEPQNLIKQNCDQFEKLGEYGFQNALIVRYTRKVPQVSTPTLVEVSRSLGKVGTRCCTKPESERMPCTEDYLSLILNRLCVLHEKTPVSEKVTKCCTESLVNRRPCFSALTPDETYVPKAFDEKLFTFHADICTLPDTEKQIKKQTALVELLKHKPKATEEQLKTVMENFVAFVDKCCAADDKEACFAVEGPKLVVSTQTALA
UniProt P08758: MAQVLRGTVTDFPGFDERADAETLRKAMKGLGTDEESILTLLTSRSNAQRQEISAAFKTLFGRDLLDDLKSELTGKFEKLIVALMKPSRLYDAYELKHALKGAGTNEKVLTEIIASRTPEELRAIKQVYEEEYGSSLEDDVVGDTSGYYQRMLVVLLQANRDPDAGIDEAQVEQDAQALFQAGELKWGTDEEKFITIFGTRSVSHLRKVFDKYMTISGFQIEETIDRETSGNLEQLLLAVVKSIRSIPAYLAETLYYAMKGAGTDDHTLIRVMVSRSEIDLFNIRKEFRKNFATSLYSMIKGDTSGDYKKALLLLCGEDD

The assay has as its target bovine serum albumin (bovine) (UniProt P02769). Description: SPR; control flow cell of an HPP (alkyl-SAM) sensor chip coated only with BSA; peptides and proteins flowed over; HBS running buffer (10 mM HEPES, 0.15 M NaCl, pH 7.4) with 2 mM CaCl2; both purified.

These are yes or no findings as the source states them, for the method shown.

As to annexin V (from UniProt P08758 1-320), the binding result is listed as “no binding”.
Under GGDYDKIGKNDA (C-terminal amide (CONH2)) [C2BL3-L] stands “no binding”.
